Data on 1 molecule can be found in article PMC5691159 (Nature Communications, 2017).

Sequences of proteins named here, by UniProt entry; tags and fusion partners are left off. Residues count along the entry.
UniProt Q8IFM5, residues 25-526: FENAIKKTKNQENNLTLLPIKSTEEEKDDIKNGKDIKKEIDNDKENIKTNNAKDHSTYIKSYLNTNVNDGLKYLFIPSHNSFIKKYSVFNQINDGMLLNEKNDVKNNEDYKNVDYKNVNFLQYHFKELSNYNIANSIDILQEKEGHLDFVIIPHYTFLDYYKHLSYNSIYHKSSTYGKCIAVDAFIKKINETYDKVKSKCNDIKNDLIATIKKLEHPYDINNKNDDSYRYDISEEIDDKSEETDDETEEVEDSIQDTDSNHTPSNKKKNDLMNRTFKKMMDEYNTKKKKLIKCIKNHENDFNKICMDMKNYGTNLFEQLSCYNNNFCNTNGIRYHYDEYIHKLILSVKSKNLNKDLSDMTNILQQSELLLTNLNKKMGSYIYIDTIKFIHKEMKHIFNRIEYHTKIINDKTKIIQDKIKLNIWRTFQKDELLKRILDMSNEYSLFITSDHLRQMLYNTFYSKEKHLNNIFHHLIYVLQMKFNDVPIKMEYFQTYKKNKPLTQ

The target in test [1] is PfRh5 protein (P. falciparum) (UniProt Q8IFM5). In words: co-IP; Pierce Co-IP kit: antibody against the bait protein immobilised on coupling resin; mixture of bait and prey (PfRhopH3-C) proteins, 8 µg each, up to 4 h at 4 °C; prey detected by western blot; both purified. For orientation: Immunoblotting shows a protein as a band on a membrane.
For test [2] the target is unchanged. In words: ELISA; bait protein coated overnight at 200 ng in carbonate/bicarbonate buffer pH 9.6; prey protein 100, 200, 400, 800 ng in 100 µl binding buffer (50 mM HEPES, 250 mM potassium acetate, 5 mM magnesium acetate, pH 8.0), 1 h at 37 °C; prey detected by antibody; both purified.

These are yes or no findings as the source states them, for the method shown. Some entries that bind do so weakly or less than the wild type. Tags and fused reporters may be left off the sequences shown.

B1: recombinant PfRhopH3-C protein (aa 617–865) with C-terminal hexa-Histidine tag (domain or fragment)
chain: QLSCFYPKEFELIKSRMIHPNIVDRILKGIDNLMKSTRYDKMRTMYLDFESSDIFSREKVFTALYNFDSFIKTNEQLKKKNLEEISEIPVQLETSNDGIGYRKQDVLYETDKPQTMDEASYEETVDEDAHHVNEKQHSAHFLDAIAEKDILEEKTKDQDLEIELYKYMGPLKEQSKSTSAASTSDEISGSEGPSTESTSTGNQGEDKTTDNTYKEMEELEEAEGTSNLKKGLEFYKSSLKLDQLDKEKP
Turning to B1, the binding entry in test [1] and in test [2] was “binds” each time.
